Experimental data: US20260000600A1, “PHARMACEUTICAL COMPOSITION FOR PREVENTING OR TREATING INFLAMMATORY DISEASES COMPRISING PEGYLATED BILIRUBIN” (BILIX CO., LTD., priority 2022, published 2026)
At least one structure is not confirmed: it was looked up by name or label, or the drawing left a doubt.

Experiments:
[1] = tested on: HDM-induced atopic dermatitis mouse model; assay: HDM-induced atopic dermatitis mouse model (2), comparison with approved drugs; assay type: in vivo, NC/Nga female mice
Protocol: (§1) An HDM-induced atopic dermatitis mouse model was created by applying HDM antigen ointment to the back and ear skin of 6 to 10-week-old NC/Nga female mice a total of 7 times on Days 0, 7, 10, 14, 17, 21 and 24. […] Clinical symptoms were evaluated during the process of inducing atopic dermatitis, and skin tissues were secured after the survival test was completed for further analysis.
To quantify the clinical symptoms of atopic dermatitis, for four (4) clinical index items including 1) erythema/hemorrhage, 2) scarring/dryness, 3) edema and 4) excoriation/maceration (erosion), a clinical score was measured on a Likert scale out of 3. H&E staining was performed to observe histological changes in the skin for atopic dermatitis, while dihydroethidium (DHE) staining was performed to measure ROS in skin tissues. Further, in order to identify the mast cells and eosinophils infiltrated in the skin tissues, Toluidine blue staining and Congo red staining were performed, respectively. To measure IL-4 and IL-13, which are inflammatory mediators known to be highly related to atopic dermatitis, ELISA was performed on the skin tissues. The results of the graph were expressed as mean±SEM. […]

[2] = tested on: HDM-induced atopic dermatitis mouse model; assay: HDM-induced atopic dermatitis mouse model (1), dose dependence; assay type: in vivo, NC/Nga female mice
Protocol: as §1
To quantify the clinical symptoms of atopic dermatitis, for four (4) clinical index items including 1) erythema/hemorrhage, 2) scarring/dryness, 3) edema and 4) excoriation/maceration (erosion), a clinical score was measured on a Likert scale out of 3. H&E staining was performed to observe histological changes in the skin for atopic dermatitis, while dihydroethidium (DHE) staining was performed to measure ROS in skin tissues. Further, in order to identify the mast cells and eosinophils infiltrated in the skin tissues, Toluidine blue staining and Congo red staining were performed, respectively. The results of the graph were expressed as mean±SEM. The statistical analysis was performed using the GraphPad program to confirm statistical significance with the Vehicle group through one-way ANOVA, followed by Dunnett's multiple comparison method (*p<0.05, **p<0.01, ***p<0.001, ****p<0.0001).

[3] = treatment groups compared to Vehicle group
[4] = treatment groups compared to negative control group

## C[C@@H]1C[C@H]2[C@@H]3CCC4=CC(=O)C=C[C@]4(C)[C@@]3(F)[C@@H](O)C[C@]2(C)[C@@]1(O)C(=O)CO [Dexamethasone]
[1]; [3]
  skin histological changes (H&E staining): decreased epidermal thickness and an effect of reducing hyperkeratinization
[1]; [4]
  ROS in skin tissues (DHE staining): decrease in DHE staining intensity
[2]; [3]
  skin histological changes (H&E staining): decreased epidermal thickness and an effect of reducing hyperkeratinization
[2]; [4]
  ROS in skin tissues (DHE staining): decrease in DHE staining intensity
